PubChem BioAssay AID1259424 – University of Nebraska Medical Center | 2018
Screen: 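Rank knockdowns across the genome by resemblance to the KSR1 depletion profile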 (primary screen). System: human HCT116 colon cancer cells. Reagents: siRNA pool against human genes, 50 nM. Measurement: 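Log2 levels of six mRNAs (branched-DNA multiplex), adjusted by two reference genes and the non-targeting median, then scored against the average KSR1 knockdown pattern as Pearson r and euclidean distance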. Reading the numbers: mean correlation with KSR1 profile and KSR1 correlation: higher = expression change more like KSR1 knockdown; mean distance from KSR1 profile: higher = expression change less like KSR1 knockdown.
The deposit covers about 14,000 reagents; shown is a random part of them. 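Higher correlation or smaller distance means closer resemblance to KSR1 loss; control wells, including KSR1 knockdowns, recur on many plates.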 Some reagents were tested in more than one well and are listed for each. Not given: the time to read-out.

gene knocked down | mean correlation with KSR1 profile | mean distance from KSR1 profile | KSR1 correlation, replicate 1 | KSR1 correlation, replicate 2 | KSR1 correlation, replicate 3
TRMT5 | 0.0943 | 1.21 | 0.138 | -0.0693 | 0.131
ANKMY2 | -0.161 | 3.45 | -0.293 | -0.0382 | -0.0629
SP2 | -0.608 | 5.41 | -0.67 | -0.605 | -0.542
SUPT6H | -0.541 | 4.98 | -0.527 | -0.427 | -0.73
NR5A2 | 0.447 | 3.26 | 0.492 | 0.533 | 0.276
CRB1 | 0.289 | 1.84 | 0.296 | 0.11 | 0.265
CCNE2 | 0.0128 | 1.03 | -0.0075 | 0.149 | -0.295
OSBP2 | -0.273 | 2.63 | 0.0869 | -0.461 | -0.365
GRK1 | 0.718 | 1.22 | 0.728 | 0.779 | 0.698
GRK1 | 0.431 | 2.08 | 0.39 | 0.153 | 0.589
KLK15 | -0.363 | 3.53 | -0.21 | -0.494 | -0.337
ZNF652 | -0.292 | 2.61 | 0.00946 | -0.399 | -0.401
MRO | 0.366 | 2.47 | 0.295 | 0.288 | 0.399
ENTPD7 | 0.759 | 2.88 | 0.497 | 0.782 | 0.832
GREB1 | 0.47 | 0.984 | 0.357 | 0.542 | 0.392
MRPL39 | -0.376 | 2.65 | -0.598 | -0.314 | -0.353
C10orf1 (retired record) | -0.389 | 2.17 | -0.0413 | -0.631 | -0.122
SHLD2 | 0.738 | 1.91 | 0.752 | 0.498 | 0.285
FCGR2A | 0.448 | 0.987 | 0.317 | 0.584 | 0.436
NDUFAF7 | 0.459 | 1.27 | 0.388 | 0.138 | 0.785
GPD2 | 0.272 | 0.877 | 0.0785 | 0.376 | 0.24
TFCP2L1 | -0.0194 | 2.39 | -0.291 | -0.329 | -0.217
SNAP29 | 0.0485 | 2.19 | -0.00892 | 0.203 | 0.176
TRIM31 | -0.248 | 4.8 | -0.29 | -0.0209 | -0.632
SH2D1A | -0.367 | 3.1 | -0.379 | -0.301 | -0.532
SEC16A | -0.00518 | 1.85 | 0.0653 | -0.175 | 0.114
ALKBH2 | -0.0279 | 1.69 | 0.053 | -0.504 | 0.0198
ADGRG7 | 0.403 | 3.04 | 0.691 | 0.328 | -0.895
POLR2F | -0.224 | 2.18 | 0.0991 | -0.0198 | -0.676
MRPS17 | -0.166 | 3.88 | -0.221 | -0.0586 | -0.151
FAM184B | 0.306 | 0.942 | 0.018 | -0.362 | 0.142
SNRK | 0.0675 | 1.65 | 0.648 | -0.285 | -0.681
CHST2 | -0.213 | 1.38 | 0.173 | -0.0195 | -0.223
PELP1 | 0.441 | 0.976 | 0.305 | 0.311 | 0.342
CABIN1 | -0.451 | 3.93 | -0.403 | -0.453 | -0.484
GAGE2C | -0.184 | 3.01 | -0.213 | -0.141 | -0.241
LGI2 | -0.105 | 3.91 | 0.165 | -0.116 | 0.0271
EHD3 | 0.00159 | 1.91 | -0.334 | 0.0102 | -0.383
HSF1 | 0.569 | 0.999 | 0.657 | 0.527 | 0.383
TRIM29 | 0.0153 | 1.82 | 0.404 | -0.308 | -0.294
SHC1 | 0.826 | 1.94 | 0.711 | 0.374 | 0.527
CELF4 | -0.862 | 3.55 | -0.673 | -0.802 | -0.788
NUMB | 0.0446 | 1.98 | -0.381 | 0.112 | 0.17
KCNK13 | -0.411 | 2.89 | -0.347 | -0.4 | -0.405
KIAA0825 | -0.797 | 1.24 | -0.693 | -0.901 | -0.352
RGS6 | 0.356 | 2.16 | 0.373 | 0.587 | 0.271
POLA1 | -0.454 | 2.28 | -0.423 | -0.16 | -0.932
PLXNC1 | 0.804 | 1.47 | 0.776 | 0.792 | 0.767
DDX6 | -0.728 | 3.4 | -0.582 | -0.774 | -0.719
GMPR2 | 0.0291 | 2.02 | 0.174 | -0.129 | -0.0267

Part of the list above, set out differently.
| gene knocked down | mean correlation with KSR1 profile | mean distance from KSR1 profile | KSR1 correlation, replicate 1 | KSR1 correlation, replicate 2 | KSR1 correlation, replicate 3 |
| --- | --- | --- | --- | --- | --- |
| SHC1 | 0.826 | 1.94 | 0.711 | 0.374 | 0.527 |
| CELF4 | -0.862 | 3.55 | -0.673 | -0.802 | -0.788 |
| NUMB | 0.0446 | 1.98 | -0.381 | 0.112 | 0.17 |
| KCNK13 | -0.411 | 2.89 | -0.347 | -0.4 | -0.405 |
| KIAA0825 | -0.797 | 1.24 | -0.693 | -0.901 | -0.352 |
| RGS6 | 0.356 | 2.16 | 0.373 | 0.587 | 0.271 |
| POLA1 | -0.454 | 2.28 | -0.423 | -0.16 | -0.932 |
